Measured values from PMC12650272.
No constants are given. Whether binding was seen depends on the method and setting. Binding seen in cells or lysates may run through a third protein. Some entries that bind do so weakly or less than the wild type. Tags and fused reporters may be left off the sequences shown.

By UniProt entry, the sequences of proteins in these tests, tags left out. Where a name states a change or a piece, a line headed by the entry shows the natural chain unless it says otherwise.
UniProt P03372: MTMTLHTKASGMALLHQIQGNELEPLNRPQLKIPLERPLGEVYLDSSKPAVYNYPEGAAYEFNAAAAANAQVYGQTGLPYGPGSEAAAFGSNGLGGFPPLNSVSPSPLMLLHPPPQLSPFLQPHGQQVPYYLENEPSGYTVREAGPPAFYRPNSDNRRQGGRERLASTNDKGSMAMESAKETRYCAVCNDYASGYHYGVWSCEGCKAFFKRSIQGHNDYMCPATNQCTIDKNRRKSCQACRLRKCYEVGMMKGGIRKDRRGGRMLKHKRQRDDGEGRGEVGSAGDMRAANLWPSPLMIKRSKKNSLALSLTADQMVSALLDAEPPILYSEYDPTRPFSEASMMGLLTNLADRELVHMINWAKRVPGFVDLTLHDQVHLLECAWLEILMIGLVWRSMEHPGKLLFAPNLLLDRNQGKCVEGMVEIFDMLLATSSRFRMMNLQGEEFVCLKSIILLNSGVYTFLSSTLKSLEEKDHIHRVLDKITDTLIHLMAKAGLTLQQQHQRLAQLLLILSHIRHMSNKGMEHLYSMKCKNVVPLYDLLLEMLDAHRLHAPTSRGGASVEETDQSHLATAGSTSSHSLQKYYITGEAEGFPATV

Target: estrogen receptor α (ERα) (human (endogenous in ER-positive BRCA cells, MCF-7 / T47D)) (UniProt P03372)
Test: co-IP; endogenous IP from ER-positive BRCA cells; lysis in RIPA buffer with protease inhibitors, antibody 12 h at 4 °C, protein A/G beads, Western blot; MG132 added in the IP experiments

B1: STAM binding protein (STAMBP) (enzyme, UniProt O95630 1-424)
chain: MSDHGDVSLPPEDRVRALSQLGSAVEVNEDIPPRRYFRSGVEIIRMASIYSEEGNIEHAFILYNKYITLFIEKLPKHRDYKSAVIPEKKDTVKKLKEIAFPKAEELKAELLKRYTKEYTEYNEEKKKEAEELARNMAIQQELEKEKQRVAQQKQQQLEQEQFHAFEEMIRNQELEKERLKIVQEFGKVDPGLGGPLVPDLEKPSLDVFPTLTVSSIQPSDCHTTVRPAKPPVVDRSLKPGALSNSESIPTIDGLRHVVVPGRLCPQFLQLASANTARGVETCGILCGKLMRNEFTITHVLIPKQSAGSDYCNTENEEELFLIQDQQGLITLGWIHTHPTQTAFLSSVDLHTHCSYQMMLPESVAIVCSPKFQETGFFKLTDHGLEEISSCRQKGFHPHSKDPPLFCSCSHVTVVDRAVTITDLR
binding: binds
